Results are given in words; binding and its absence hold for the method and conditions named. For some of these results: In cells and extracts the contact can be indirect. Some binding calls cover weakened binding; strength is not graded here.
Legend:
[1] = molecular target: poly(ADP) ribose polymerase (PARP) (human) (UniProt P09874); experiment: GST-HOXB7 affinity matrix, SKBR3 extract, immunoblot (FIG. 9B)
[2] = molecular target: poly(ADP) ribose polymerase (PARP) (human) (UniProt P09874); experiment: GST-HOXB7 affinity chromatography of cell extracts; MALDI-TOF peptide mass fingerprint and immunoblot of eluate
[3] = molecular target: poly(ADP) ribose polymerase (PARP) (human) (UniProt P09874); experiment: GST pull-down/affinity chromatography; co-immunoprecipitation
[4] = molecular target: poly(ADP) ribose polymerase (PARP) (human) (UniProt P09874); experiment: co-immunoprecipitation with GFP antibodies from stably transfected SKBR3 cells, Western blot (FIG. 9C)

By UniProt entry, the sequences of proteins in these tests, tags left out. Residues count along the entry.
UniProt P09874, residues 2-1014: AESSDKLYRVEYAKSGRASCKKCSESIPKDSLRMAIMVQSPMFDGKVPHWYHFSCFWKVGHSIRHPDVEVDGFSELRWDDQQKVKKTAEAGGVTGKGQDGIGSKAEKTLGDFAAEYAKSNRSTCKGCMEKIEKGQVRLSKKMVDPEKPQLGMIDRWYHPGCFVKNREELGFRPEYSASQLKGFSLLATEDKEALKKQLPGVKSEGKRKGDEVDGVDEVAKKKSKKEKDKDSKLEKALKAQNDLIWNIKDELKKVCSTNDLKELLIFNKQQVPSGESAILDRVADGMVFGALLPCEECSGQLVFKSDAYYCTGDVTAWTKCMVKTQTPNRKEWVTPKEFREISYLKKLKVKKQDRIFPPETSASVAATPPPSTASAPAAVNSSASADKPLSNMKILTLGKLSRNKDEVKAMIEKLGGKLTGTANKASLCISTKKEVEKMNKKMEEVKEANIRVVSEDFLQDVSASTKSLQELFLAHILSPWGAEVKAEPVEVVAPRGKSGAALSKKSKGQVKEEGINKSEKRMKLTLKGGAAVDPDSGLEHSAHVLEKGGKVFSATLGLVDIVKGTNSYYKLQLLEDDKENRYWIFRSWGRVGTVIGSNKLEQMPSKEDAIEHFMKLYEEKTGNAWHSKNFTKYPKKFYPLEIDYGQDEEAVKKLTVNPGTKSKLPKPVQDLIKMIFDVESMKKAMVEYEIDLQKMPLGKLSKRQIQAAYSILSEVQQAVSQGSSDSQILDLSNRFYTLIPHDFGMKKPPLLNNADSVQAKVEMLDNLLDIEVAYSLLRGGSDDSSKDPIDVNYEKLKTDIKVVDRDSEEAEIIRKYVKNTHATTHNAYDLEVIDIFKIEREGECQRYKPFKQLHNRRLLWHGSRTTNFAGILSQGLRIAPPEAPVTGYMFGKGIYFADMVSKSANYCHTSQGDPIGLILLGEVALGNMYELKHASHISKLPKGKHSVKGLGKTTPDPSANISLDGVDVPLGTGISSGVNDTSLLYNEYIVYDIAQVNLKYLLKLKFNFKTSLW
UniProt P09629: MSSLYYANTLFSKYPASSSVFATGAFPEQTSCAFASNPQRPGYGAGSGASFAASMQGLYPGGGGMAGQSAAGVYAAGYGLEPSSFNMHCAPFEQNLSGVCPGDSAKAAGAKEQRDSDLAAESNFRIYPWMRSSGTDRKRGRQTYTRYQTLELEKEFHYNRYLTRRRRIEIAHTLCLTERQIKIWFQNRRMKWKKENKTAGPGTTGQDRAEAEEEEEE

Row | binding [1] | binding [2] | binding [3] | binding [4] | Substance
1 | binds | binds | binds | – | GST-HOXB7 (from UniProt P09629 1-217)
2 | – | – | – | binds | HOXB7-YFP (from UniProt P09629 1-217)
